In publication PMC3622178:
Results are given in words; binding and its absence hold for the method and conditions named. A result given as binding can be weak or reduced; the word gives no strength.

The chains behind the UniProt entries cited, without tags or fusion partners. Where a name states a change or a piece, a line headed by the entry shows the natural chain unless it says otherwise.
UniProt Q9WTL8: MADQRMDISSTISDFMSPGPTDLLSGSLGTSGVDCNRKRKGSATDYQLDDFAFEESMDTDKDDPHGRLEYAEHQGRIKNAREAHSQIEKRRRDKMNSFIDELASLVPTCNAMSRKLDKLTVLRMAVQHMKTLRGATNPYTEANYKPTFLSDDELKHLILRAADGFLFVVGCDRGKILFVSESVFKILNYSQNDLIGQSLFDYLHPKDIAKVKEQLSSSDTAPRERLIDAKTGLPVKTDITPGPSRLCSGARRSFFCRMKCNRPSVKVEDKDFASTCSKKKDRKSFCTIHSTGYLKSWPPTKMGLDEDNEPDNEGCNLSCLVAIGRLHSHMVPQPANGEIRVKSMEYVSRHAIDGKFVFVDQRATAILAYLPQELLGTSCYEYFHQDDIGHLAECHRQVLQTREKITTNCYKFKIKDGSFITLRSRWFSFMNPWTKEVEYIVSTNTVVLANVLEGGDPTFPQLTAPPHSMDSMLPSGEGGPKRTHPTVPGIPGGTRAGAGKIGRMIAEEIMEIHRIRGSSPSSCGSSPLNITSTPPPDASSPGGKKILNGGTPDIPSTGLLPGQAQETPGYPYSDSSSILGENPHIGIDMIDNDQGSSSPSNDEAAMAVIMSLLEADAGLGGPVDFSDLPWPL
UniProt O08785: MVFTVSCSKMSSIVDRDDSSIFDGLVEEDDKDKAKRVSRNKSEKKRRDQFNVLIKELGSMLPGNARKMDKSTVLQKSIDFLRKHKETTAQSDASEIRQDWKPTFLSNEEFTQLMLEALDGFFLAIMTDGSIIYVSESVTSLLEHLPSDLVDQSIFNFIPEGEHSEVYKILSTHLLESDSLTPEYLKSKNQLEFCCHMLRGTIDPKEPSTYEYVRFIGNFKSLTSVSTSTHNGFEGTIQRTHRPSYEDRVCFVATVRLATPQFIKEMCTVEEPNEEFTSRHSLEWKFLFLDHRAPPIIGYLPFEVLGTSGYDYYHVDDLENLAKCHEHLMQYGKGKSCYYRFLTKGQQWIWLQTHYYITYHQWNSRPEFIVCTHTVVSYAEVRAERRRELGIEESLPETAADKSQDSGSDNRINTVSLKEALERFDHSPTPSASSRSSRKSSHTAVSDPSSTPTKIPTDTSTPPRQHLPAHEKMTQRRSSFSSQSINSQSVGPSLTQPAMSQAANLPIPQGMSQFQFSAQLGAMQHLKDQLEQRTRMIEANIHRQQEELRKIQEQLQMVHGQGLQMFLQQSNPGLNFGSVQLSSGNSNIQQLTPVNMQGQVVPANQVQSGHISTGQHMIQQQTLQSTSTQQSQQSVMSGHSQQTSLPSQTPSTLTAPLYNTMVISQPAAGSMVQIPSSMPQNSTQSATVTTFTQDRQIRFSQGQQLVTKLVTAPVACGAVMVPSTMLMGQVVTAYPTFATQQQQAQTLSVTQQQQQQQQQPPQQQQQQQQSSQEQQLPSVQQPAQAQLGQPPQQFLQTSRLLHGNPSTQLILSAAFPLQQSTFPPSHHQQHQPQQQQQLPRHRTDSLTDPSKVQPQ

Target: BMAL1 (mouse (endogenous in C57BL/6J liver)) (UniProt Q9WTL8)
Assay: native gel or EMSA; antibody supershift of protein complexes on 32P-labelled tandem E-box probes (Dbp EP, Dbp EI2, Per2 E', Per1 EP1); 15 ug liver nuclear protein (ZT8), 25 mM HEPES-KOH pH 7.6, 150 mM NaCl, 0.1 mM EDTA, 1 mM DTT; 16°C 30 min; anti-CLOCK or anti-BMAL1 added before the probe

binding: binds
Substance: CLOCK^Δ19 (from UniProt O08785)
